According to PMC12040169 (PLOS Biology, 2025):
Some of the results follow.

system: T1, CTL2-GFP (C. trachomatis L2/434/Bu, GFP-expressing); set-up: species or system HeLa; Intracellular C. trachomatis growth in HeLa cells, bulk GFP fluorescence relative to DMSO; details: bulk GFP, single well; 28.5 h, 10 µM; inhibitor
T1 construct: L2/434/Bu, GFP-expressing

Row | SMILES | % of control remaining [%]
1 | CCOC(=O)C1CCCCN1S(=O)(=O)c1ccc(Br)s1 (stereo not shown) [CBK096110] | 93.3878
2 | Cc1c(-c2cncn2C(C)CN2CCOCC2)[nH]c2ccccc12 (stereo not shown) [CBK281795] | 84.3267
3 | COc1ccc(-c2cnn(-c3ccc(OC)cc3)n2)cc1 [CBK112745] | 99.9734
4 | COc1ccc(-c2nc(-c3cc4ccccc4o3)cnc2N)cc1OC [CBK064099] | 127.692
5 | CN(C)CCNC(=O)C1CCN(c2nc3c(-c4ccccc4F)csc3c(=O)[nH]2)CC1 [CBK215437] | 124.545
6 | Cc1ccc(-c2oncc2C(=O)NCc2cccs2)cc1 [CBK153679] | 155.172
7 | Cc1ccc2[nH]c3c(c2c1)CCOC31CCN(CCOc2cccc3c2CCCC3=O)CC1 [CBK040230] | 94.4056
8 | CC(C)Nc1cc(Cl)ncn1 [CBK081511] | 58.6933
9 | FC(F)(F)c1[nH]c2ncccc2c1CN1CCN2CCCCC2C1 (stereo not shown) [CBK285355] | 131.336
10 | CC(=O)Nc1ccc(NS(=O)(=O)c2ccc(C)c(C(=O)O)c2)cc1 [CBK295162] | 169.894
11 | O=C(O)CCN1C(=O)c2ccc(NC(=O)CCc3ccccc3)cc2C1=O [CBK266422] | 156.678
12 | Cc1cnc2[nH]c(C3CC3)c(CN3CC(C)OC(C)C3)c2c1 (stereo not shown) [CBK284741] | 111.817
13 | CC(C)(C)c1ccc(C(O)CN2CCC(O)(c3ccc4c(c3)OCO4)CC2)cc1 (stereo not shown) [CBK286336] | 118.176
14 | O=C(COc1cccc(Cl)c1)NCCc1ccc(S(=O)(=O)NC(=O)NC2CCCCC2)cc1 [CBK011798] | 131.684
15 | Cn1ccnc1C1(O)CC2CCC(C1)N2C(=O)c1ccccc1Cl (stereo not shown) [CBK284090] | 128.446
16 | Cc1ccc2c(c1)cc(C(=O)N(C)CC1(C)COC1)n2C [CBK281723] | 154.092
17 | Cc1noc(C)c1C(=O)N1CCn2cc(C(F)(F)F)nc2C1 [CBK282431] | 100.014
18 | Cn1c(=O)n(CCN2CCOCC2)c(=O)c2c1nc1n2CCN1c1ccc(Oc2ccccc2)cc1 [CBK269202] | 162.126
19 | O=C(CSc1nc2sc3c(c2c(=O)n1-c1ccccc1)CCCC3)NCCc1ccccc1 [CBK263280] | 113.687
20 | O=c1[nH]c2ncc(-c3ccsc3)nc2n1C1CCCCC1 [CBK064574] | 147.642
21 | O=C(NCc1ccco1)c1cccc(Oc2ccccc2)c1 [CBK270333] | 123.114
22 | O=C1N[C@@H](Cc2ccc(F)cc2)C(=O)N2CCN(C(=O)N3CCOCC3)C[C@H]12 [CBK289603] | 121.164
23 | Cc1ccc(S(=O)(=O)CC(=O)N2CCN(C(=O)c3ccco3)CC2)cc1 [CBK144469] | 108.29
24 | Nc1ncc(-c2cccc(C(F)(F)F)c2)c2cccnc12 [CBK067590] | 121.664
25 | CC(C)(C)OC(=O)N1CCN(CCOc2ccc(NC(=O)OCc3ccccc3)cc2F)CC1 [CBK016854] | 118.089
26 | Cc1cc2c(N3CCCC(NS(C)(=O)=O)C3)nccc2o1 (stereo not shown) [CBK306464] | 108.334
27 | CCN(CC(=O)NCc1ccccn1)S(=O)(=O)c1ccccc1 [CBK269546] | 139.826

Row | SMILES | % of control remaining [%]
28 | COc1cccc(CN2CCN(C(=O)Cc3cccs3)[C@@H](C)C2)c1 [CBK285487] | 114.814
29 | Cc1nn2c(N)ncnc2c1-c1ccc(Cl)cc1 [CBK287880] | 109.236
30 | NC(=S)Nc1nc(-c2ccc(Br)cc2)cs1 [CBK023259] | 162.903
31 | O=C(CN1CCN(Cc2ccc3c(c2)OCO3)CC1)Nc1ccc(Oc2ccccc2)cc1 [CBK265864] | 105.135
32 | Cc1cc(NC(=O)Cc2cn3ccsc3n2)ccc1N1CCCC1 [CBK306080] | 142.18
33 | O=C(CCn1c(=O)oc2ccccc21)Nc1ccc2c(c1)CN(Cc1ccccc1)C2 [CBK285946] | 119.057
34 | COc1cccc(OC)c1OCCCN1CCCCC1 [CBK262719] | 114.259
35 | CN(C)c1ccc(Nc2cc(Cl)nc3ccnn23)cc1 [CBK037203] | 161.369
36 | COc1ccc(CN2CCN(Cc3ccco3)CC2)cc1OCc1ccccc1 [CBK264225] | 106.873
37 | O=C(O)CCCC(=O)NCCc1ccc(Cl)cc1Cl [CBK296930] | 167.679
38 | Nc1cc2ccccc2nc1C1CCN(C(=O)C2CC=CCC2)CC1 (stereo not shown) [CBK285016] | 134.596
39 | CCc1ccc(S(=O)(=O)N2CCN(C(c3ccccc3)c3ccccc3)CC2)cc1 [CBK093948] | 112.667
40 | O=C(O)CCSc1nc2ccccc2n1CCOc1ccccc1 [CBK262555] | 113.549
41 | O=C(CN1CCC(c2ccccc2F)CC1)NC1CCCC1 [CBK283551] | 122.105
42 | Cc1nnc(SCC(=O)N/N=C/c2ccncc2)n1-c1ccccc1 [CBK262762] | 126.358
43 | COc1ccc2c(c1)c(=O)oc1cc(OCC(=O)N3CCc4ccccc4C3)ccc12 [CBK266346] | 164.189
44 | CCC1(C)CC(=O)c2cc(NC(=O)N3CCc4n[nH]cc4C3)ccc2O1 (stereo not shown) [CBK306846] | 174.04
45 | C#CCOc1cn([C@H]2C[C@@H](O)[C@@H](CO)O2)c(=O)[nH]c1=O [CBK201278] | 116.302
46 | O=C(O)c1cccc(Sc2nccc(C(F)(F)F)n2)c1 [CBK115957] | 116.878
47 | COC(=O)CN1N=C(C(C)(C)C)Cn2c(cc3ccccc32)C1=O [CBK284204] | 87.65
48 | Cc1ccc(CN2CC(C(=O)N3CCC(C(=O)O)CC3)CC2=O)cc1 (stereo not shown) [CBK300205] | 136.158
49 | Cc1ccccc1OC(C)C(=O)Nc1ccc(S(=O)(=O)N2CCCC2)cc1 (stereo not shown) [CBK269367] | 147.327
50 | CCCc1nc2oc3c(-c4ccccc4)c(C(=O)O)c(C)nc3c2c2c1COC(C)(C)C2 [CBK264044] | 125.036
51 | Cc1nn(Cc2cccc(C(N)=O)c2)c(C)c1Br [CBK022255] | 126.39
52 | Cc1ccc2nc3c(cc2c1)CNCC(C)O3 (stereo not shown) [CBK281941] | 149.597
53 | Cc1nn(C)c(C)c1S(=O)(=O)n1ccn(-c2cccc(C(F)(F)F)c2)c1=O [CBK106593] | 157.399
54 | Cc1ccc(Cl)cc1N1CCN(C(=O)C2C3C=CC(C3)C2C(=O)O)CC1 (stereo not shown) [CBK287025] | 128.669

Row | SMILES | % of control remaining [%]
55 | CCOC(=O)CC(=O)COc1nc2cc3c(nc2o1)CCCC3 [CBK269204] | 145.479
56 | Cc1csc(C(Cc2ccsc2)NC(=O)c2c(C)noc2C)n1 (stereo not shown) [CBK285045] | 130.236
57 | CC1=NN(c2ccccc2)C(=O)/C1=C/Nc1ccc(S(=O)(=O)Nc2nc(C)cc(C)n2)cc1 [CBK262368] | 14.631
58 | Cc1cccn2c(=O)cc(CN3CCn4c(nnc4C4CC4)C3)nc12 [CBK305232] | 89.154
59 | COc1ccccc1CN1CCC2(CCCNC2=O)CC1 [CBK284823] | 143.302
60 | CCc1nc2ccc(C(=O)Nc3ccc(NC(C)=O)cc3)cn2c1N(C)CC [CBK145483] | 87.1352
61 | Cc1ccc(S(=O)(=O)N(CC(=O)Nc2ccccc2F)c2cc(Cl)ccc2Cl)cc1 [CBK268647] | 93.5
62 | Ic1ccc2c3ccc(I)cc3c3[nH]c(-c4ccccc4)nc3c2c1 [CBK261218] | 100
63 | CCN1CCCC(CNS(=O)(=O)c2cc(-n3cccn3)ccc2OC)C1 (stereo not shown) [CBK306997] | 148.472
64 | COc1cccc(NC(=O)c2cnc(-c3ccccc3)c(-c3cccnc3)c2)c1OC [CBK037487] | 106.184
65 | O=C(NCc1ccco1)C1CCN(c2nccc(C(F)(F)F)n2)CC1 [CBK028778] | 126.333
66 | O=c1n(CC2CCCCC2)c2ccccc2n1S(=O)(=O)c1ccc2ccccc2c1 [CBK106527] | 101.502
67 | Cc1oc(-c2ccccc2)cc1C(=O)Nc1c(F)cc(F)cc1OC1CCNCC1 [CBK050326T] | 107.164
68 | Cc1ccc(C(=O)N2CCN(C)CC2)c(N2CCOCC2)n1 [CBK106199] | 118.173
69 | CCCCc1noc(CN2CCCC2C(=O)NCc2ccco2)n1 (stereo not shown) [CBK304036] | 125.338
70 | Cc1cccc(C)c1NC(=O)CN(c1ccc(F)cc1)S(=O)(=O)c1ccc2c(c1)OCCO2 [CBK264878] | 109.965
71 | Nc1ncc(-c2cccc3ccccc23)nc1N1CCC[C@@H]1CO [CBK063517] | 76.8226
72 | Clc1ccccc1CN(CCCn1ccnc1)Cc1c[nH]cn1 [CBK282988] | 80.0265
73 | COc1ccc2[nH]cc(C(C(=O)O)N3CCN(Cc4ccccn4)CC3)c2c1 (stereo not shown) [CBK286846] | 124.02
74 | O=C(NC1(c2cccc(F)c2)CCCC1)c1cnccn1 [CBK283619] | 123.317
75 | COc1ncc(-c2nccnc2N2CCN(C)CC2)c(OC)n1 [CBK036595] | 190.681
76 | CCN1CCN(C(=O)c2cccc3[nH]ccc23)CC1 [CBK200246] | 100.507
77 | C[C@H]1[C@@H]2[C@@H](O)C([C@H](C)C(=O)NC3CC3)CC[C@@]2(C)CC[C@@H]1NC(=O)c1cncnc1 (stereo partly shown) [CBK289453] | 178.823
78 | Cc1ccc(-c2ccn(C(C)C(=O)N(C)C)n2)cc1 (stereo not shown) [CBK016069] | 152.59
79 | Cc1csc2c(C3CCN(C(=O)c4cnn(C)c4)CC3)nc(C)n12 [CBK285250] | 134.024
